Results published in the supplement of paper PMC10849652.
This is one part of the list.

Amino acid sequences for entries named in this document (tags omitted). A change or cut given only in a name is not applied to a line headed by its entry.
UniProt P14209: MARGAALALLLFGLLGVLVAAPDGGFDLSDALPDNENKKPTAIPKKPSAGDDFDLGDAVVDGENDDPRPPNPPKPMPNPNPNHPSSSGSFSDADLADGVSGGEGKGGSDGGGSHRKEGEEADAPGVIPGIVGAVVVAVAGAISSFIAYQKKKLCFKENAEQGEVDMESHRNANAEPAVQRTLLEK
UniProt Q13951, whole entry, looked up: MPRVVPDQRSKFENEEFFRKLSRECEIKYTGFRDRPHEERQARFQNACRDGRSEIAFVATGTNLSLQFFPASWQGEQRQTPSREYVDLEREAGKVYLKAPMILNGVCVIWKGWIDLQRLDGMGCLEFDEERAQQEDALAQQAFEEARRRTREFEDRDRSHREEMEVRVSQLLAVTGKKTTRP
UniProt P08174: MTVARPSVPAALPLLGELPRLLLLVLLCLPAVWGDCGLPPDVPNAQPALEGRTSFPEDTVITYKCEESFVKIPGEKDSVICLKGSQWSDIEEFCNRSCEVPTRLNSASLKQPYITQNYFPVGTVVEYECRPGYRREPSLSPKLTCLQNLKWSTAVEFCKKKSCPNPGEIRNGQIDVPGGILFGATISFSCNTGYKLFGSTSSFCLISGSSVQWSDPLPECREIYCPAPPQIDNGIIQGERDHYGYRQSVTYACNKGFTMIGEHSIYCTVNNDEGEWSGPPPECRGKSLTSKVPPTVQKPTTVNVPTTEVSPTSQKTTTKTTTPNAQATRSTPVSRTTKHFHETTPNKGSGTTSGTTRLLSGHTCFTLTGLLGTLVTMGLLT
UniProt Q13042, whole entry, looked up: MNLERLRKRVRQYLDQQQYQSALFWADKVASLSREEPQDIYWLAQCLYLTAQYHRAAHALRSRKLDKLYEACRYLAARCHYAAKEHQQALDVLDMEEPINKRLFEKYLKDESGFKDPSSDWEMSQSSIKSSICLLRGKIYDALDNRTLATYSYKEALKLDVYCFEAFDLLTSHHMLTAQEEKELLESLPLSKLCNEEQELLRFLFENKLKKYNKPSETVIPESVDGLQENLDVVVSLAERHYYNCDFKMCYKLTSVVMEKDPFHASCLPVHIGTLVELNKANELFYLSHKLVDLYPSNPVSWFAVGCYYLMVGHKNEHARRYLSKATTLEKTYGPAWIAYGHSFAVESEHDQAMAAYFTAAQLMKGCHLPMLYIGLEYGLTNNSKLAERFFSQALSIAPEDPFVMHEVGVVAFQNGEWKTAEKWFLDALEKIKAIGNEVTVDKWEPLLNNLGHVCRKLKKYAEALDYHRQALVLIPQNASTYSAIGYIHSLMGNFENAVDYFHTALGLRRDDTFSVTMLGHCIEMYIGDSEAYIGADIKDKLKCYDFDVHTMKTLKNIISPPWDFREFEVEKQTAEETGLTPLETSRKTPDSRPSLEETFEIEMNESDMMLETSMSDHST
UniProt Q96F63: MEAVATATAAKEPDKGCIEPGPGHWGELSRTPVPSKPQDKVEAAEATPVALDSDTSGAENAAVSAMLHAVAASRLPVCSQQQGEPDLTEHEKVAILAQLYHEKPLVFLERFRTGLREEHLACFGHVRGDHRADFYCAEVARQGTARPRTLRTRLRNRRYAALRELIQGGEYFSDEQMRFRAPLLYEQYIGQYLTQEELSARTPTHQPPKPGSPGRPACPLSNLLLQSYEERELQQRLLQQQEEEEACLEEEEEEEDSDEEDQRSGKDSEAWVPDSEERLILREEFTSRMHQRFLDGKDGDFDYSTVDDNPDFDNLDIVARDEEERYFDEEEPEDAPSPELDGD
UniProt O15446, whole entry, looked up: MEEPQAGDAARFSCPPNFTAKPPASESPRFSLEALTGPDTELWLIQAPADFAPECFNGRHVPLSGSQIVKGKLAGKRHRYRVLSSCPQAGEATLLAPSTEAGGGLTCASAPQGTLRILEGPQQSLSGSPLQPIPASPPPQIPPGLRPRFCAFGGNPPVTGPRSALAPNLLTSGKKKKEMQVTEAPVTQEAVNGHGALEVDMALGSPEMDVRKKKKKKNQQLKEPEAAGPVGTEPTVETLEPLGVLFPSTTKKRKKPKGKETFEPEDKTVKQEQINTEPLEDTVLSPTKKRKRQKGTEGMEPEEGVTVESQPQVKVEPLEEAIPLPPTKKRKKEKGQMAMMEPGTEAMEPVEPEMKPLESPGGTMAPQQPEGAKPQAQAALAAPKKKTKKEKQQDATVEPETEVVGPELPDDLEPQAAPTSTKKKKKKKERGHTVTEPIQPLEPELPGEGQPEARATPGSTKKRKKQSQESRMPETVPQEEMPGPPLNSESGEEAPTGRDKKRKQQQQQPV
UniProt P49427: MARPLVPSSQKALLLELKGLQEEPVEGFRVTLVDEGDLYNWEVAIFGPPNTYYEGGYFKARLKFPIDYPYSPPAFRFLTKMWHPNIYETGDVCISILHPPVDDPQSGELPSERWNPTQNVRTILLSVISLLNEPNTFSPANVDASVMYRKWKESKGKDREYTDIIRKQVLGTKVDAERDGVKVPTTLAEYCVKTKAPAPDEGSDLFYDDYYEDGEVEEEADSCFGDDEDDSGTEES
UniProt Q9BUN5: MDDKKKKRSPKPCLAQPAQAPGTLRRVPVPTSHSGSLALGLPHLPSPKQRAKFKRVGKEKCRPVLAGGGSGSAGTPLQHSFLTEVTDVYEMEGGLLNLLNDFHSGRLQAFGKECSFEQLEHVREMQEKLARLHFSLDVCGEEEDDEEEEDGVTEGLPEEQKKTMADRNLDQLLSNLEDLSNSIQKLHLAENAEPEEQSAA
UniProt Q16204: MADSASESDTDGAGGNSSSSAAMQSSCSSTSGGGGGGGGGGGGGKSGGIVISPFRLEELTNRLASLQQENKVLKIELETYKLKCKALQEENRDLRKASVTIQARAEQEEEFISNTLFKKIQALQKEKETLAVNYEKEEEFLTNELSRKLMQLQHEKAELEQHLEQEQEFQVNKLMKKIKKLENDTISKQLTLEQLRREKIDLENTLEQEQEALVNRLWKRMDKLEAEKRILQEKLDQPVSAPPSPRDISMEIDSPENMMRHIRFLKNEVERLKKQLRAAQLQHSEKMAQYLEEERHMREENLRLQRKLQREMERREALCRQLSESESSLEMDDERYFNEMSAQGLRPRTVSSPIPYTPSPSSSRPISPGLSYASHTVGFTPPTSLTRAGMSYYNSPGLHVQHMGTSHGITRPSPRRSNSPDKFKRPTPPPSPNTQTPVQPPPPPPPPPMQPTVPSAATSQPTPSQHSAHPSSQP
UniProt O60826, whole entry, looked up: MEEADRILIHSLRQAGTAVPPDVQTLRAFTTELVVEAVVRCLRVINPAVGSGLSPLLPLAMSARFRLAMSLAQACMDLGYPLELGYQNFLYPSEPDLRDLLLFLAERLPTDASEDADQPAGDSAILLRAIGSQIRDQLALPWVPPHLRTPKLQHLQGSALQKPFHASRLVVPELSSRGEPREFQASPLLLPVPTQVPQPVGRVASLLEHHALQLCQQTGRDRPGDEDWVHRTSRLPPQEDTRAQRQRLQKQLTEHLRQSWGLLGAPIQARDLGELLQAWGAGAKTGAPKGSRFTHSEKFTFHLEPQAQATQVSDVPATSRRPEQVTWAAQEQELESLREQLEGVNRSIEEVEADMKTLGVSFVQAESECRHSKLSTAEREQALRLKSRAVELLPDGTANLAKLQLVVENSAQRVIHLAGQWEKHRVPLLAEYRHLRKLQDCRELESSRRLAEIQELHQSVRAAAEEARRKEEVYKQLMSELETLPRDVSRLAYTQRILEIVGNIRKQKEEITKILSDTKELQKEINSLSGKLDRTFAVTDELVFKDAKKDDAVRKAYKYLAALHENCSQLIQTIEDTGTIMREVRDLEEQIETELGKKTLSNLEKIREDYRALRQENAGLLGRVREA
UniProt O95273: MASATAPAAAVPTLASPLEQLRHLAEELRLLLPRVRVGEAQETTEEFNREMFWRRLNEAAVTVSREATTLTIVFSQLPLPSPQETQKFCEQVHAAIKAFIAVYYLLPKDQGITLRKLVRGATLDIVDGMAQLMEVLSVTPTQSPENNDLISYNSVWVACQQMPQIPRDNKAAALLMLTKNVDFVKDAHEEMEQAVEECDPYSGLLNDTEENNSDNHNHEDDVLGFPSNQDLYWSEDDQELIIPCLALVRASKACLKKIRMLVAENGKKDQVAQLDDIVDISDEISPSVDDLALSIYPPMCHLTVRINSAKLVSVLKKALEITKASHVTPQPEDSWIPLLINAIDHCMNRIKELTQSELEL
UniProt Q9BV29: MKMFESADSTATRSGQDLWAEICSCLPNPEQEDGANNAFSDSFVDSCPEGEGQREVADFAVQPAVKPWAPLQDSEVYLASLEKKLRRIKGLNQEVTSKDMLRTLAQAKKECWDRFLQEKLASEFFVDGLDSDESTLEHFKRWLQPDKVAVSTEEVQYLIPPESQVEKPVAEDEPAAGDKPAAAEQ
UniProt Q6NZI2: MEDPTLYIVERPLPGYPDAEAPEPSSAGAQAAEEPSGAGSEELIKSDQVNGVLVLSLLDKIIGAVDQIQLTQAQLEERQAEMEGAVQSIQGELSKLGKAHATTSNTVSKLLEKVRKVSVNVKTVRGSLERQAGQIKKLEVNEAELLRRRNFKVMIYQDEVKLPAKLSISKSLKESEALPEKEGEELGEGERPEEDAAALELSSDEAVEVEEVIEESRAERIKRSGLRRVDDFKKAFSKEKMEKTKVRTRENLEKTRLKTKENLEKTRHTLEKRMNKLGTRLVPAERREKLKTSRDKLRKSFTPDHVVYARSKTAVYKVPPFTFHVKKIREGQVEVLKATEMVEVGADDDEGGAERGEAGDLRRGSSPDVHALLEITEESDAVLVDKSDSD
UniProt Q8IX12: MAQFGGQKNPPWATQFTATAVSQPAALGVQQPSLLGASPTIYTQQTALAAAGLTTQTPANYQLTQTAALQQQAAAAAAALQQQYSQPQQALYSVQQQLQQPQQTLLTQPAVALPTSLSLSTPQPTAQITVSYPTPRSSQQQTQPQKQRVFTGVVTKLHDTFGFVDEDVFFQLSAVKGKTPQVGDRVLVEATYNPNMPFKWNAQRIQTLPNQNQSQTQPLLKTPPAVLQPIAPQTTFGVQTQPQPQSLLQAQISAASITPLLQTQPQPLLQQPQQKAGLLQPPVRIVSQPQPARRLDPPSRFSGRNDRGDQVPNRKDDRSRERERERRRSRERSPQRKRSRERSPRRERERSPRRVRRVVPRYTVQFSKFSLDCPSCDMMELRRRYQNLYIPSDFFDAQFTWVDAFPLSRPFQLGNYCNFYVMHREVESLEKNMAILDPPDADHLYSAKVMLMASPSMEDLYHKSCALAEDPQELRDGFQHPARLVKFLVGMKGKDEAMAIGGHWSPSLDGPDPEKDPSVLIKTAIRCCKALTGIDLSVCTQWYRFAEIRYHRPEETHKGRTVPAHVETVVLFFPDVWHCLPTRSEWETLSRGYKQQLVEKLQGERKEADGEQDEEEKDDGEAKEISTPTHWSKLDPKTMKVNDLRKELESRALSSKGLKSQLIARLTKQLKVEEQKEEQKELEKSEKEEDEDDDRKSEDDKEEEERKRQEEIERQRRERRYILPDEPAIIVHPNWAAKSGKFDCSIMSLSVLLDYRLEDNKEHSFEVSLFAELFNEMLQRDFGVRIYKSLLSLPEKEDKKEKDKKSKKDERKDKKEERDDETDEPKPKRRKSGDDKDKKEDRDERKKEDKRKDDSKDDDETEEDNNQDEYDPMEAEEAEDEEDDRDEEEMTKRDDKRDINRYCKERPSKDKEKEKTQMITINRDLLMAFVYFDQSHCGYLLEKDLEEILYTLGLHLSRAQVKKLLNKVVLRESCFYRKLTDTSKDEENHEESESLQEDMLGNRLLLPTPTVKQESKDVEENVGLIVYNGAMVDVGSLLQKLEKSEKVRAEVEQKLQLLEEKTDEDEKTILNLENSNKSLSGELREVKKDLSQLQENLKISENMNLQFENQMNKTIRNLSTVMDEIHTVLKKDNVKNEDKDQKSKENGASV
UniProt Q8IVM0: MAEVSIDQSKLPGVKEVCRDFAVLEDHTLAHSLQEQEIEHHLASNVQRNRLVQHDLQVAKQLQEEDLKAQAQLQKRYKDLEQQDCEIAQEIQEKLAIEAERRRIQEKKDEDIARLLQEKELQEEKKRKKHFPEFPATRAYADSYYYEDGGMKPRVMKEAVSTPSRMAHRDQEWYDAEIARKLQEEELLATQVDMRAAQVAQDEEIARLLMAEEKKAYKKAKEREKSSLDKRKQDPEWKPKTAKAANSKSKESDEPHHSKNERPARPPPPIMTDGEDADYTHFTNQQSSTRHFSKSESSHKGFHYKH
UniProt P13987: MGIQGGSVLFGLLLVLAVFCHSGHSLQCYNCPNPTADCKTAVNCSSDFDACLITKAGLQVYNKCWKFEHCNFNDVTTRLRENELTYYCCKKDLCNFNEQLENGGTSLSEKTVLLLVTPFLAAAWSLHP
UniProt P21926: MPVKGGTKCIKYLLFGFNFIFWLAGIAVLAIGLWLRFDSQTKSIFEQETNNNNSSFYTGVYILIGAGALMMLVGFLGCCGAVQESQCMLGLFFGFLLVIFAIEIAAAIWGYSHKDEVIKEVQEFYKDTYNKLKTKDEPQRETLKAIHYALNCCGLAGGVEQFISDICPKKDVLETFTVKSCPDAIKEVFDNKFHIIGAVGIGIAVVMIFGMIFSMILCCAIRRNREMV

What was measured:
Test in all cases: log2 fold change, soluble protein after heating vs DMSO (PISA); higher = thermal stabilisation; K562 cells, 10 uM, 30 min; active = over 0.2 and 3.5 SD of the protein, either way, in both replicates (recomputed)
[1] = compound: C#Cc1cccc(Nc2ncnc3cc(OCCOC)c(OCCOC)cc23)c1 [erlotinib]
Procedure, shortened: (§1)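 K562 cells at 2×10^6 cells/mL were treated for 30 min with 10 μM compound, and aliquots were heated for 3 min over 48°C-58°C before pooling. Extraction used PBS with 0.5% NP-40 at 4°C, and soluble protein was the supernatant after 21,000xg for 90 min, measured by TMTpro 16plex LC-MS/MS with channel sums equalised. Thermal stability values, relative to control samples and from duplicates, are log2 fold changes.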

[2] = compound: C/C(=N\NC(=O)C1=CC(=CC=C1)S(=O)(=O)N2CCOCC2)/C3=C(C=CC(=C3)Cl)O
Procedure, shortened: as §1

[3] = compound: C1=CC(=C(C=C1Cl)C2=NC3=NC=CN=C3C(=N2)NC4=CC=NC=C4)F
Procedure, shortened: as §1

[4] = compound: C1=CC(=CC=C1C2=NC3=C(N2)C=C(C=C3)C(=O)N)OC4=CC=C(C=C4)Cl
Procedure, shortened: as §1

[5] = compound: C1=CC2=C(C=CC(=C2)/C=C\3/C(=O)NC(=NCC4=CC=CS4)S3)N=C1
Procedure, shortened: as §1

[6] = compound: C1=CC2=NC=CN=C2C=C1/C=C/3\C(=O)NC(=O)S3
Procedure, shortened: as §1

[7] = compound: C1=CC=C2C(=C1)C3=NNC4=CC=CC(=C43)C2=O
Procedure, shortened: as §1

[8] = compound: C1CCN(C1)C(=O)NC2=CC=CC(=C2)NC3=NC=C(C(=N3)NCCC4=CN=CN4)Br
Procedure, shortened: as §1

[9] = compound: C1CN(CCC1(CC2=CC=C(C=C2)Cl)N)C3=NC=NC4=C3C=CN4
Procedure, shortened: as §1

[10] = compound: C1=CC=C(C=C1)C2=NC(=C(N2)C3=CC=NC=C3)C4=CC(=C(C=C4)Cl)O
Procedure, shortened: as §1

Measured: log2 fold change

CD99 (UniProt P14209)
inactive: [1] -0.012 | [2] 0.009 | [3] 0.014 | [4] 0.103 | [5] 0.077 | [6] 0.082 | [7] -0.165 | [8] 0.019 | [9] -0.037

CCNYL1 (UniProt Q8N7R7)
inactive: [1] 0.055 | [2] -0.138 | [3] -0.037 | [4] 0.036 | [5] 0.142 | [6] -0.04 | [7] -0.018

CCDC175 (UniProt P0C221)
inactive: [1] 0.077 | [2] -0.049 | [4] -0.025 | [5] 0.022 | [6] -0.013 | [10] -0.01 | [7] 0.004

CBFB (UniProt Q13951)
inactive: [1] 0.091 | [2] 0.064 | [4] -0.086 | [5] 0.092 | [6] 0.013 | [10] -0.131 | [7] -0.013 | [8] 0.002 | [9] -0.043

CAV2 (UniProt P51636)
inactive: [1] -0.01 | [2] -0.066 | [4] 0.076 | [5] -0.018 | [6] -0.559 | [7] 0.057 | [8] 0.025 | [9] -0.021

CD55 isoform 7 (UniProt P08174)
inactive: [1] -0.065 | [2] -0.002 | [3] -0.031 | [4] 0.036 | [5] -0.121 | [6] -0.015 | [10] 0.011 | [7] -0.062 | [8] -0.079 | [9] 0.008

CDC16 (UniProt Q13042)
inactive: [1] -0.098 | [2] 0.059 | [3] -0.006 | [4] 0.023 | [5] -0.014 | [6] 0.033 | [10] 0 | [7] -0.022 | [8] 0.013 | [9] -0.023

CCDC97 (UniProt Q96F63)
inactive: [1] -0.014 | [2] -0.003 | [3] -0.049 | [4] 0.043 | [5] -0.028 | [6] 0.111 | [10] -0.03 | [7] 0.003 | [8] -0.015 | [9] -0.063

CD3EAP isoform 2 (UniProt O15446)
inactive: [1] -0.046 | [2] -0.096 | [3] -0.245 | [4] -0.025 | [5] -0.048 | [6] 0.089 | [10] -0.06 | [7] -0.009 | [8] -0.05 | [9] -0.078

CCNK isoform 4 (UniProt O75909)
inactive: [1] 0.079 | [2] 0.006 | [3] -0.138 | [4] -0.016 | [5] -0.126 | [6] -0.013 | [10] -0.068 | [7] -0.077 | [8] 0.047 | [9] -0.126

CDC34 (UniProt P49427)
inactive: [1] 0.274 | [2] 0.029 | [3] 0.061 | [4] -0.081 | [5] 0.178 | [6] 0 | [10] -0.052 | [7] -0.033 | [8] -0.11 | [9] -0.038

CCDC28B (UniProt Q9BUN5)
inactive: [1] -0.133 | [2] -0.039 | [4] 0.047 | [5] 0.079 | [6] 0.141 | [7] -0.046 | [8] 0.101 | [9] -0.097

CCDC117 (UniProt Q8IWD4)
inactive: [1] -0.076 | [2] -0.049 | [3] -0.016 | [4] -0.022 | [5] 0.017 | [6] 0.005 | [10] -0.068 | [7] -0.03 | [8] 0.037 | [9] -0.037

CCDC6 (UniProt Q16204)
inactive: [1] 0.017 | [2] -0.014 | [3] 0.02 | [4] -0.037 | [5] 0.03 | [6] 0.004 | [10] -0.073 | [7] -0.012 | [8] 0 | [9] 0.011

CCDC22 (UniProt O60826)
inactive: [1] 0.029 | [2] 0.03 | [3] -0.076 | [4] -0.018 | [5] 0.032 | [6] 0.027 | [10] -0.025 | [7] -0.047 | [8] -0.015 | [9] -0.033

CDC40 (UniProt O60508)
inactive: [1] -0.166 | [2] -0.307 | [3] -0.44 | [4] -0.001 | [5] -0.139 | [6] -0.02 | [7] -0.037 | [8] -0.009 | [9] 0.167

CASC4 (UniProt Q6P4E1)
inactive: [1] 0.123 | [2] -0.111 | [3] 0.001 | [4] 0.007 | [5] 0.083 | [6] 0.03 | [10] -0.077 | [7] -0.01 | [8] 0.025 | [9] 0.045

CCNDBP1 (UniProt O95273)
inactive: [1] 0.009 | [2] 0.191 | [4] 0.105 | [5] -0.011 | [6] 0.034 | [10] 0.076 | [7] -0.122 | [8] -0.086 | [9] -0.068

CCDC59 (UniProt Q9P031)
inactive: [1] -0.118 | [2] -0.127 | [3] -0.192 | [4] 0.071 | [5] -0.136 | [6] -0.014 | [10] -0.091 | [7] 0.069 | [8] 0.054 | [9] -0.027

2 records picked at random from the list so far, as already listed:
CCDC22 (UniProt O60826)
inactive: [1] 0.029 | [2] 0.03 | [3] -0.076 | [4] -0.018 | [5] 0.032 | [6] 0.027 | [10] -0.025 | [7] -0.047 | [8] -0.015 | [9] -0.033

CCDC28B (UniProt Q9BUN5)
inactive: [1] -0.133 | [2] -0.039 | [4] 0.047 | [5] 0.079 | [6] 0.141 | [7] -0.046 | [8] 0.101 | [9] -0.097

Later entries.

CCDC32 isoform 2 (UniProt Q9BV29)
inactive: [1] -0.036 | [2] -0.019 | [3] -0.032 | [4] 0.034 | [5] 0.057 | [6] 0.06 | [10] 0.046 | [7] -0.091 | [8] -0.064 | [9] -0.11

CAVIN1 (UniProt Q6NZI2)
inactive: [1] -0.06 | [2] -0.085 | [3] -0.309 | [4] 0.121 | [5] -0.04 | [6] -0.002 | [10] 0.274 | [7] 0.07 | [8] 0.062 | [9] -0.137

CCAR1 (UniProt Q8IX12)
inactive: [1] 0.052 | [2] 0.057 | [3] -0.002 | [4] 0.014 | [5] 0.071 | [6] 0.039 | [10] -0.021 | [7] 0.024 | [8] 0.027 | [9] -0.085

CASP8 isoform 9 (UniProt Q14790)
inactive: [1] -0.008 | [2] 0.056 | [3] -0.055 | [4] -0.023 | [5] 0.021 | [6] 0.052 | [10] -0.078 | [7] 0.104 | [8] -0.051 | [9] -0.014

CCDC85B (UniProt Q15834)
inactive: [1] -0.038 | [2] -0.002 | [4] -0.104 | [5] -0.11 | [6] 0.015 | [7] -0.013 | [8] 0.013 | [9] -0.257

CCDC124 (UniProt Q96CT7)
inactive: [1] -0.024 | [2] -0.021 | [3] -0.158 | [4] 0 | [5] 0.003 | [6] 0.008 | [10] -0.035 | [7] -0.004 | [8] 0.026 | [9] -0.047

CBL (UniProt P22681)
inactive: [1] 0.013 | [2] 0.036 | [3] 0.01 | [4] 0 | [5] -0.024 | [6] -0.004 | [10] 0.023 | [7] -0.01 | [8] -0.081 | [9] -0.013

CBLB (UniProt Q13191)
inactive: [1] -0.018 | [2] 0.015 | [3] 0.017 | [4] 0.021 | [5] -0.055 | [6] 0.034 | [10] -0.059 | [7] 0.094 | [8] -0.065 | [9] -0.009

CCDC50 (UniProt Q8IVM0)
inactive: [1] 0.001 | [2] 0.044 | [3] -0.013 | [4] 0.021 | [5] -0.002 | [6] 0.023 | [10] -0.078 | [7] -0.021 | [8] 0.017 | [9] 0.049

CD59 isoform 2 (UniProt P13987)
inactive: [1] -0.029 | [2] -0.049 | [3] -0.061 | [4] -0.013 | [5] -0.048 | [6] 0.012 | [10] 0.081 | [7] -0.049 | [8] 0.02 | [9] -0.023

CD9 (UniProt P21926)
inactive: [2] -0.063 | [3] 0.099 | [5] 0.056 | [7] -0.303 | [8] -0.111 | [9] 0.085

CD276 (UniProt Q5ZPR3)
inactive: [6] -0.001

CCND1 (UniProt P24385)
inactive: [10] -0.06
